Data source: PubChem BioAssay AID1259308 (NCATS, 2017)

- Assay: 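Candidate targets for better recombinant protein yield in mammalian cells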 (primary screen)
- Cell system: human HEK293 embryonic kidney cells stably expressing firefly luciferase (HEK-CMV-Luc2-Hygro)
- Reagents: single siRNA against human genes, 0.8 pmol siRNA per well
- Timing: 72 h
- Detection: 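Luciferase light (ONE-Glo) measured on one replicate plate set and viability (CellTiter-Glo) on the other, scaled to a negative control siRNA, with robust z-scores and luciferase per cell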
- Scale: total luciferase, z-score and total luciferase, % of control: higher = more reporter protein produced
- Call rule: 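Active when the median/MAD z-score for overall luciferase is greater than 3; a gene was taken forward for validation with new siRNAs if at least two of its three siRNAs passed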
- Calls: active = raised luciferase; inactive = no rise
In all, the deposit lists about 59,000 reagents; shown is an unselected part. In the full data, about 1,510 (2.6%) were called active. 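Calls use total luciferase alone and ignore viability, so some active siRNAs may act by altering cell number.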 The numbers tell different reagents against one gene apart. Further read-outs or replicates are left out here.

NPTX1 (neuronal pentraxin 1) #1: total luciferase, z-score = -0.234; total luciferase, % of control = 77.2; Outcome = inactive
NPTX1 (neuronal pentraxin 1) #2: total luciferase, z-score = 0.0701; total luciferase, % of control = 83.3; Outcome = inactive
NPTX1 (neuronal pentraxin 1) #3: total luciferase, z-score = 0.408; total luciferase, % of control = 90; Outcome = inactive
RAB3GAP1 (RAB3 GTPase activating protein catalytic subunit 1) #1: total luciferase, z-score = 0.252; total luciferase, % of control = 86.9; Outcome = inactive
RAB3GAP1 (RAB3 GTPase activating protein catalytic subunit 1) #2: total luciferase, z-score = -0.234; total luciferase, % of control = 77.2; Outcome = inactive
RAB3GAP1 (RAB3 GTPase activating protein catalytic subunit 1) #3: total luciferase, z-score = -0.713; total luciferase, % of control = 67.7; Outcome = inactive
VNN1 (vanin 1) #1: total luciferase, z-score = 0.574; total luciferase, % of control = 93.3; Outcome = inactive
VNN1 (vanin 1) #2: total luciferase, z-score = 0.405; total luciferase, % of control = 89.9; Outcome = inactive
VNN1 (vanin 1) #3: total luciferase, z-score = 0.556; total luciferase, % of control = 92.9; Outcome = inactive
CFAP157 (cilia and flagella associated protein 157) #1: total luciferase, z-score = -0.0651; total luciferase, % of control = 80.6; Outcome = inactive
CFAP157 (cilia and flagella associated protein 157) #2: total luciferase, z-score = -0.922; total luciferase, % of control = 63.5; Outcome = inactive
CFAP157 (cilia and flagella associated protein 157) #3: total luciferase, z-score = -1.51; total luciferase, % of control = 51.8; Outcome = inactive
MIR9-1HG (MIR9-1 host gene) #1: total luciferase, z-score = -0.0362; total luciferase, % of control = 81.2; Outcome = inactive
MIR9-1HG (MIR9-1 host gene) #2: total luciferase, z-score = -1.02; total luciferase, % of control = 61.5; Outcome = inactive
MIR9-1HG (MIR9-1 host gene) #3: total luciferase, z-score = -1.57; total luciferase, % of control = 50.8; Outcome = inactive
ISL2 (ISL LIM homeobox 2) #1: total luciferase, z-score = 0.0642; total luciferase, % of control = 83.2; Outcome = inactive
ISL2 (ISL LIM homeobox 2) #2: total luciferase, z-score = -0.594; total luciferase, % of control = 70.1; Outcome = inactive
ISL2 (ISL LIM homeobox 2) #3: total luciferase, z-score = -1.57; total luciferase, % of control = 50.6; Outcome = inactive
TNRC6B (trinucleotide repeat containing adaptor 6B) #1: total luciferase, z-score = 0.655; total luciferase, % of control = 94.9; Outcome = inactive
TNRC6B (trinucleotide repeat containing adaptor 6B) #2: total luciferase, z-score = -0.305; total luciferase, % of control = 75.8; Outcome = inactive
TNRC6B (trinucleotide repeat containing adaptor 6B) #3: total luciferase, z-score = 0.288; total luciferase, % of control = 87.6; Outcome = inactive
SLC31A2 #1: total luciferase, z-score = -1.34; total luciferase, % of control = 55.3; Outcome = inactive
SLC31A2 #2: total luciferase, z-score = 0.433; total luciferase, % of control = 90.5; Outcome = inactive
SLC31A2 #3: total luciferase, z-score = 0.404; total luciferase, % of control = 89.9; Outcome = inactive
ART1 (ADP-ribosyltransferase 1) #1: total luciferase, z-score = -0.849; total luciferase, % of control = 65; Outcome = inactive
ART1 (ADP-ribosyltransferase 1) #2: total luciferase, z-score = -0.514; total luciferase, % of control = 71.7; Outcome = inactive
ART1 (ADP-ribosyltransferase 1) #3: total luciferase, z-score = 0.482; total luciferase, % of control = 91.5; Outcome = inactive
TRIO (trio Rho guanine nucleotide exchange factor) #1: total luciferase, z-score = -0.453; total luciferase, % of control = 72.9; Outcome = inactive
TRIO (trio Rho guanine nucleotide exchange factor) #2: total luciferase, z-score = -1.14; total luciferase, % of control = 59.2; Outcome = inactive
TRIO (trio Rho guanine nucleotide exchange factor) #3: total luciferase, z-score = 0.469; total luciferase, % of control = 91.2; Outcome = inactive
LEFTY2 (left-right determination factor 2) #1: total luciferase, z-score = -0.454; total luciferase, % of control = 72.9; Outcome = inactive
LEFTY2 (left-right determination factor 2) #2: total luciferase, z-score = -2.11; total luciferase, % of control = 39.8; Outcome = inactive
LEFTY2 (left-right determination factor 2) #3: total luciferase, z-score = 1.02; total luciferase, % of control = 102; Outcome = inactive

Targets above whose gene name begins with R or r:
RAB3GAP1 (RAB3 GTPase activating protein catalytic subunit 1) #1: total luciferase, z-score = 0.252; total luciferase, % of control = 86.9; Outcome = inactive
RAB3GAP1 (RAB3 GTPase activating protein catalytic subunit 1) #2: total luciferase, z-score = -0.234; total luciferase, % of control = 77.2; Outcome = inactive
RAB3GAP1 (RAB3 GTPase activating protein catalytic subunit 1) #3: total luciferase, z-score = -0.713; total luciferase, % of control = 67.7; Outcome = inactive
